From PubChem BioAssay AID248 (DTP/NCI, 2004) come the findings set out here.

The test deals with L1210 leukemia ip in BDF1 mice, survival T/C. The test can be described thus: NCI In Vivo Anticancer Drug Screen. Data for tumor model L1210 Leukemia (intraperitoneal) in B6D2F1 (BDF1) mice. Particulars: T/C endpoint: mean survival time, higher T/C = longer survival.
Setting [1] is: dose: 400.0 mg/kg/injection, schedule: Q01DX009 (ip), vehicle: Klucel (hydroxypropylcellulose) (HPC).
The mark [2] stands for this setting: dose: 200.0 mg/kg/injection, schedule: Q01DX009 (ip), vehicle: Klucel (hydroxypropylcellulose) (HPC).
[3] abbreviates: dose: 400.0 mg/kg/injection, schedule: Q01DX009 (ip), vehicle: saline with Tween-80.

The list is a part of this screen's results and no random one: it gathers tests that were run many times, whatever their T/C, doses with no T/C, and many T/C values between a quarter and a half above the control. Other doses and runs of a compound stand elsewhere. T/C: endpoint of the treated group in % of that of the vehicle group. Some entries give survivors of the animals treated and no T/C: the source files T/C as zero there, which appears to mark a toxic dose or a test without result, not a measured value. Some survivor counts are full or nearly so, which does not show that the dose was tolerated: the source hardly ever lists a survival T/C far under the control, and the zero likely stands for such cases as well. Counts of survivors are from the toxicity check (mostly the fifth day) where no day follows; animals may have died later. Schedules are NCI's codes, taken here to give the interval after Q, in days (D) or hours (H), and the number of doses after X. Where survival is the endpoint, the PubChem record calls one and a half times the control and up active, and a quarter to a half above the control has no call in these data; cut-offs in other NCI protocols can differ. Some T/C values are followed by the survivors on the day toxicity was checked, most often the fifth; without a count, all were alive then.

Turning to `O=S1(=O)CC2(N3CCOCC3)CCCCC21` (stereo unspecified), the survivor count (dose: 400.0 mg/kg/injection, schedule: Q01DX001 (ip), vehicle: carboxymethylcellulose (CMC)) is recorded as 1 of 4.

With `Cc1ccc(NC(=O)COc2ccc(Cl)cc2)c(C)c1`, the survivor count under setting [1] is given as 6 of 6.

`CCOC(=O)C1CC(C(=O)OCC)c2nc3ccccc3nc21` (stereo unspecified): under “dose: 200.0 mg/kg/injection, schedule: Q01DX001 (ip), vehicle: other”, the survivor count is given as 6 of 6.

Take `CNc1nc2c(N)ncnc2n1C1OC(CO)C(O)C1O` (stereo unspecified): where the note is “dose: 100.0 mg/kg/injection, schedule: Q04DX002 (ip), vehicle: saline”, the T/C was 127 % of control [4 of 6 alive]. For the same molecule, the survivor count is 0 of 4 (dose: 200.0 mg/kg/injection, schedule: Q01DX001 (ip), vehicle: saline); 0 of 6 (dose: 200.0 mg/kg/injection, schedule: Q04DX002 (ip), vehicle: saline); 0 of 6 (dose: 200.0 mg/kg/injection, schedule: Q04DX002 (ip), vehicle: suspension in saline); 0 of 4 (dose: 400.0 mg/kg/injection, schedule: Q01DX001 (ip), vehicle: saline).

Consider `COc1ccc(OC)c(NC(=O)Oc2ccccc2F)c1`, for which the survivor count under setting [2] is given as 3 of 3.

As to `CC1C=CC(c2ccccc2)C2C(=O)OC(=O)C12` (stereo unspecified), the survivor count under setting [2] was 2 of 3.

Turning to `O=CC1=C(Cl)c2ccccc2SC1`, the survivor count (dose: 400.0 mg/kg/injection, schedule: Q01DX001 (ip), vehicle: other) is 0 of 4.

Consider `CCCCCCCCC/C(C)=C1/SC(=S)NC1=O`, for which the survivor count is, setting by setting: (dose: 200.0 mg/kg/injection, schedule: Q01DX009 (ip), vehicle: saline) 6 of 6; (dose: 400.0 mg/kg/injection, schedule: Q01DX009 (ip), vehicle: saline) 6 of 6.

With `O=C(NC(=S)Nc1ccc(F)cc1)c1ccco1`, the survivor count under setting [2] was 3 of 6 and the survivor count (dose: 400.0 mg/kg/injection, schedule: Q04DX003 (ip), vehicle: Klucel (hydroxypropylcellulose) (HPC)) is recorded as 0 of 6.

As to `N#CCC(C(=O)c1cccnc1)c1ccccc1` (stereo unspecified), the survivor count (dose: 400.0 mg/kg/injection, schedule: Q04DX002 (ip), vehicle: gum acacia) is reported as 3 of 3.

For `CC(=O)C(C)[P+](c1ccccc1)(c1ccccc1)c1ccccc1` (stereo unspecified), the survivor count (dose: 50.0 mg/kg/injection, schedule: Q04DX003 (ip), vehicle: water) is recorded as 3 of 6; the survivor count (dose: 100.0 mg/kg/injection, schedule: Q04DX003 (ip), vehicle: water) is 2 of 6; the survivor count (dose: 200.0 mg/kg/injection, schedule: Q04DX003 (ip), vehicle: water) was 0 of 6; the survivor count (dose: 400.0 mg/kg/injection, schedule: Q04DX003 (ip), vehicle: water) is listed as 0 of 6.

Regarding `O=C(O)c1ccc(CCCCCCl)cc1`, the survivor count under setting [3] is listed as 3 of 6.

Consider `Clc1nc(Cl)nc(-c2cccn2-c2ccccc2)n1`, for which the survivor count is given as 6 of 6 (dose: 12.5 mg/kg/injection, schedule: Q01DX009 (ip), vehicle: saline with Tween-80); 5 of 6 (dose: 25.0 mg/kg/injection, schedule: Q01DX009 (ip), vehicle: saline with Tween-80); 0 of 6 (dose: 50.0 mg/kg/injection, schedule: Q01DX009 (ip), vehicle: saline with Tween-80); 0 of 6 (dose: 100.0 mg/kg/injection, schedule: Q01DX009 (ip), vehicle: saline with Tween-80); 0 of 6 (dose: 200.0 mg/kg/injection, schedule: Q01DX009 (ip), vehicle: saline with Tween-80); 5 of 6 (dose: 200.0 mg/kg/injection, schedule: Q04DX003 (ip), vehicle: saline). Also, the survivor count (dose: 400.0 mg/kg/injection, schedule: Q04DX003 (ip), vehicle: acetone) was 3 of 6.

As to `Nc1n[n+](=O)c2ccccc2n1O`, the survivor count (dose: 9.38 mg/kg/injection, schedule: Q01DX001 (ip), vehicle: other) was 0 of 6; the survivor count (dose: 18.75 mg/kg/injection, schedule: Q01DX001 (ip), vehicle: other) was 0 of 6; the survivor count (dose: 37.5 mg/kg/injection, schedule: Q01DX001 (ip), vehicle: other) was 0 of 6; the survivor count (dose: 75.0 mg/kg/injection, schedule: Q01DX001 (ip), vehicle: other) is 1 of 6; the survivor count (dose: 150.0 mg/kg/injection, schedule: Q01DX001 (ip), vehicle: other) is recorded as 0 of 6; the survivor count (dose: 300.0 mg/kg/injection, schedule: Q01DX001 (ip), vehicle: other) is recorded as 0 of 6.

In the case of `C[N+](C)(C)c1ccc(Cc2ccc([N+](C)(C)C)cc2)cc1`, the survivor count runs as follows: (dose: 0.05 mg/kg/injection, schedule: Q04DX002 (ip), vehicle: saline with Tween-80) 0 of 3; (dose: 0.1 mg/kg/injection, schedule: Q04DX002 (ip), vehicle: saline with Tween-80) 0 of 3; (dose: 0.2 mg/kg/injection, schedule: Q04DX002 (ip), vehicle: saline with Tween-80) 0 of 3; (dose: 0.78 mg/kg/injection, schedule: Q04DX002 (ip), vehicle: saline with Tween-80) 0 of 3; (dose: 1.56 mg/kg/injection, schedule: Q04DX002 (ip), vehicle: saline with Tween-80) 0 of 3; (dose: 3.13 mg/kg/injection, schedule: Q04DX002 (ip), vehicle: saline with Tween-80) 0 of 3. The survivor count is reported as 0 of 3 (dose: 100.0 mg/kg/injection, schedule: Q04DX002 (ip), vehicle: saline with Tween-80); 0 of 3 (dose: 200.0 mg/kg/injection, schedule: Q04DX002 (ip), vehicle: saline with Tween-80); 0 of 3 (dose: 400.0 mg/kg/injection, schedule: Q04DX002 (ip), vehicle: saline with Tween-80).

Take `ClCCN(CCCl)CCNc1ccnc2cc(Cl)ccc12`: where the note is “dose: 80.0 mg/kg/injection, schedule: Q01DX001 (ip), vehicle: saline”, the survivor count is listed as 1 of 6.

As for `c1ccc2c(c1)CCc1c-2[nH]c2ccccc12`, under setting [3], the survivor count is 3 of 6.

As for `COC(=O)c1ccc(OC(=O)Nc2ccc(F)c([N+](=O)[O-])c2)cc1`, under setting [1], the survivor count is recorded as 3 of 6.
